# Results from one PubChem assay

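Tests whether compounds block coactivator recruitment by the ligand-activated VDR ligand-binding domain, using polarization of Texas Red emission near 615 nm after a two-hour incubation. Five-point series from about 0.09 to 57 µM. Potency is the fitted concentration giving half of the maximal inhibition; a lower value means a stronger inhibitor. Calls follow a score built from curve class and fitted potency, where 0 is inactive, 1–39 inconclusive and 40–100 active; every row here is inconclusive, across full, partial and single-point curves.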

Values are in µM. All entries here are filed as inconclusive. Only part of the assay is shown, chiefly results filed as inconclusive. A potency from a partial, single-point or poor curve is only a rough figure. Some entries filed as inconclusive have a full curve. Activity scores are not listed here.

SMILES,setting,potency (µM),curve
Cc1ccc(CC(=O)NNC(=O)c2ccncc2)cc1C,agonist-bound VDR ligand-binding domain,19.95,"inhibitor, partial curve"
COc1ccccc1NC(c1cccnc1)c1ccc2cccnc2c1O (stereo not drawn),agonist-bound VDR ligand-binding domain,5.012,"inhibitor, single point"
O=C(Nc1ccccc1)c1nnsc1S(=O)(=O)c1ccc(Cl)cc1,agonist-bound VDR ligand-binding domain,3.162,"inhibitor, full curve, poor fit"
CCS(=O)(=O)c1ccc2oc(Nc3ccc(C(C)C)cc3)nc2c1,agonist-bound VDR ligand-binding domain,3.162,"inhibitor, full curve"
Cc1ccc(C(=O)N2C(=S)C(c3ccc(F)cc3)=NC23CCN(C)CC3)cc1,agonist-bound VDR ligand-binding domain,25.12,"inhibitor, single point"
O=C(NC1CCCC1)c1ccc2nc(-c3ccco3)c(-c3ccco3)nc2c1,agonist-bound VDR ligand-binding domain,4.467,"inhibitor, full curve, poor fit"
O=C(/C=C/c1cccnc1)/C=C/c1cccnc1,agonist-bound VDR ligand-binding domain,3.548,"inhibitor, single point"
Cc1ccc(/C=C2/SC(=O)NC2=S)o1,agonist-bound VDR ligand-binding domain,15.85,"inhibitor, partial curve"
Cc1ccc(C2(C)NC(=O)N(CC(=O)Nc3nc(-c4ccccn4)cs3)C2=O)cc1 (stereo not drawn),agonist-bound VDR ligand-binding domain,39.81,"inhibitor, single point"
CCOC(=O)C1C(=O)NC(SCC(=O)Nc2nccs2)=C(C#N)C1c1ccccc1OCC (stereo not drawn),agonist-bound VDR ligand-binding domain,2.818,"inhibitor, full curve"
[O-]/[N+](=C\c1ccncc1)c1ccc(Br)cc1,agonist-bound VDR ligand-binding domain,11.22,"inhibitor, partial curve"
O=C(Nc1ccccc1F)c1nc(S(=O)(=O)Cc2ccccc2F)ncc1Cl,agonist-bound VDR ligand-binding domain,39.81,"inhibitor, partial curve, poor fit"
Cc1ccc(-n2nnnc2C(Cl)(Cl)c2nnnn2-c2ccc(C)cc2)cc1,agonist-bound VDR ligand-binding domain,0.7943,"inhibitor, full curve, poor fit"
Cc1ccc(/C=c2\sc3nc(-c4cccnc4)nn3c2=O)cc1,agonist-bound VDR ligand-binding domain,3.162,"inhibitor, full curve"
CCOC(=O)C1=C(Cc2ccc(Cl)cc2)C(=O)c2ccccc2C1=O,agonist-bound VDR ligand-binding domain,1.995,"inhibitor, partial curve, poor fit"
COc1ccc(-n2c(O)c(/C=C3\C=Nc4ccc(Br)cc43)c(=O)[nH]c2=O)c(OC)c1,-,7.08,"inhibitor, single point"
O=C(Nc1ccc(N2CCOCC2)c(S(=O)(=O)Nc2ccc(Cl)cc2)c1)c1cnccn1,agonist-bound VDR ligand-binding domain,4.467,"inhibitor, full curve"
C=C(C)[C@@H]1c2cc(C(=O)OC)c(o2)C[C@@H](C(=C)C)[C@H]2O[C@H]2C2=C[C@H]1OC2=O,agonist-bound VDR ligand-binding domain,35.48,"inhibitor, single point"
CS(=O)(=O)c1sc(C#N)c2c1C(=O)CC(c1ccccc1)C2 (stereo not drawn),agonist-bound VDR ligand-binding domain,2.239,"inhibitor, full curve, poor fit"
COc1ccc(C(=O)/C=C/C(=O)N(CC(=O)NC2CCCCC2)Cc2ccccc2)c(O)c1,agonist-bound VDR ligand-binding domain,4.467,"inhibitor, partial curve, poor fit"
CCOC(=O)c1sc(NC(=O)C(C)C)c(C#N)c1C,agonist-bound VDR ligand-binding domain,3.548,"inhibitor, single point"
O=C(NCc1cccnc1)/C(=C\c1ccc(-c2ccc(Cl)c(Cl)c2)o1)S(=O)(=O)c1ccccc1,agonist-bound VDR ligand-binding domain,3.162,"inhibitor, single point"
COC(=O)/C=C\C(=O)Nc1cccc([N+](=O)[O-])c1,agonist-bound VDR ligand-binding domain,3.162,"inhibitor, full curve"
O=c1nc(/C=C/c2ccc(Cl)cc2Cl)cc(C(F)(F)F)[nH]1,-,1.995,"inhibitor, full curve, poor fit"
O=C1C=C(c2ccc(Cl)cc2)C(=O)N1Nc1ccccc1,agonist-bound VDR ligand-binding domain,0.7943,"inhibitor, full curve"
O=[N+]([O-])c1cc(S(=O)(=O)C(F)(F)F)ccc1Sc1nc2ccccc2s1,agonist-bound VDR ligand-binding domain,3.162,"inhibitor, full curve"
CCN1CCN(C(=S)c2ccc(Cl)cc2)CC1,agonist-bound VDR ligand-binding domain,5.623,"inhibitor, single point"
O=C(/C=C/c1ccccc1)c1ccccc1O,agonist-bound VDR ligand-binding domain,3.981,"inhibitor, full curve"
O=S(=O)(/N=C(/Sc1ccccc1)c1ccccc1)c1ccccc1,agonist-bound VDR ligand-binding domain,3.162,"inhibitor, single point"

Once more, the final 3:

{"smiles": "CCN1CCN(C(=S)c2ccc(Cl)cc2)CC1", "setting": "agonist-bound VDR ligand-binding domain", "potency (µM)": "5.623", "curve": "inhibitor, single point"}
{"smiles": "O=C(/C=C/c1ccccc1)c1ccccc1O", "setting": "agonist-bound VDR ligand-binding domain", "potency (µM)": "3.981", "curve": "inhibitor, full curve"}
{"smiles": "O=S(=O)(/N=C(/Sc1ccccc1)c1ccccc1)c1ccccc1", "setting": "agonist-bound VDR ligand-binding domain", "potency (µM)": "3.162", "curve": "inhibitor, single point"}

From PubChem BioAssay record AID602201 (NCATS, 2012).